The list shows a part of the results.
Columns and labels:
Test in all cases: log2 fold change, soluble protein after heating vs DMSO (PISA); higher = thermal stabilisation; K562 lysate, 10 uM; active = over 0.2 and 3.5 SD of the protein, either way, in both replicates (recomputed)
[1] = compound: CN1CC[C@H](c2c(O)cc(O)c3c(=O)cc(-c4ccccc4Cl)oc23)[C@H](O)C1 [alvocidib]
In short: (§1)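 To prepare the extract, K562 pellets were dounce-homogenised in PBS pH 7.4 with 1 mM MgCl2, giving crude material at 1 mg/mL protein. This was treated with 10 μM compound for 30 min, then heated in aliquots for 3 min over 48°C-58°C before pooling and addition of NP-40 to 0.5% at 4°C. Centrifugation at 21,000xg for 90 min left soluble protein in the supernatant, which TMTpro 16plex LC-MS/MS quantified with equalised channel sums. Results are log-two fold changes in thermal stability compared with solvent controls, from duplicates.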

Protein sequences, listed by entry. Tags and fused reporters are not part of them. Lines headed by an entry give the natural chain unless they say otherwise; changes in a name come on top.
UniProt Q9BWK5: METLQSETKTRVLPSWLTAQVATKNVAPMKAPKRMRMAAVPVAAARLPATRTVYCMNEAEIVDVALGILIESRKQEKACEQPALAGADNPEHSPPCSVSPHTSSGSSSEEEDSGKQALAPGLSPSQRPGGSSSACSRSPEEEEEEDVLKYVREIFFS
UniProt P39656: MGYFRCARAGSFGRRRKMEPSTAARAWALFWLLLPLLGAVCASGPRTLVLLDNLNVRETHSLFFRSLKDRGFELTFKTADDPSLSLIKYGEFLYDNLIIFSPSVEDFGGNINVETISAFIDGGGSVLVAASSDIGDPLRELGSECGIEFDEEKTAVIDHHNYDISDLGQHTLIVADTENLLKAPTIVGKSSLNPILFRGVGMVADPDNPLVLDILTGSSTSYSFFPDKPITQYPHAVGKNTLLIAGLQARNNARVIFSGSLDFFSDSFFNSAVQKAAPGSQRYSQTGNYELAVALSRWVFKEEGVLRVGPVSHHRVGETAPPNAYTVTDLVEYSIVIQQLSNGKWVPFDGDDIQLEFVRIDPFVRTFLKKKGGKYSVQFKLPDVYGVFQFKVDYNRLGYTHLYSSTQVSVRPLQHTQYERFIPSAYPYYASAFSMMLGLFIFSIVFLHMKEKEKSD
UniProt Q6ZUT9: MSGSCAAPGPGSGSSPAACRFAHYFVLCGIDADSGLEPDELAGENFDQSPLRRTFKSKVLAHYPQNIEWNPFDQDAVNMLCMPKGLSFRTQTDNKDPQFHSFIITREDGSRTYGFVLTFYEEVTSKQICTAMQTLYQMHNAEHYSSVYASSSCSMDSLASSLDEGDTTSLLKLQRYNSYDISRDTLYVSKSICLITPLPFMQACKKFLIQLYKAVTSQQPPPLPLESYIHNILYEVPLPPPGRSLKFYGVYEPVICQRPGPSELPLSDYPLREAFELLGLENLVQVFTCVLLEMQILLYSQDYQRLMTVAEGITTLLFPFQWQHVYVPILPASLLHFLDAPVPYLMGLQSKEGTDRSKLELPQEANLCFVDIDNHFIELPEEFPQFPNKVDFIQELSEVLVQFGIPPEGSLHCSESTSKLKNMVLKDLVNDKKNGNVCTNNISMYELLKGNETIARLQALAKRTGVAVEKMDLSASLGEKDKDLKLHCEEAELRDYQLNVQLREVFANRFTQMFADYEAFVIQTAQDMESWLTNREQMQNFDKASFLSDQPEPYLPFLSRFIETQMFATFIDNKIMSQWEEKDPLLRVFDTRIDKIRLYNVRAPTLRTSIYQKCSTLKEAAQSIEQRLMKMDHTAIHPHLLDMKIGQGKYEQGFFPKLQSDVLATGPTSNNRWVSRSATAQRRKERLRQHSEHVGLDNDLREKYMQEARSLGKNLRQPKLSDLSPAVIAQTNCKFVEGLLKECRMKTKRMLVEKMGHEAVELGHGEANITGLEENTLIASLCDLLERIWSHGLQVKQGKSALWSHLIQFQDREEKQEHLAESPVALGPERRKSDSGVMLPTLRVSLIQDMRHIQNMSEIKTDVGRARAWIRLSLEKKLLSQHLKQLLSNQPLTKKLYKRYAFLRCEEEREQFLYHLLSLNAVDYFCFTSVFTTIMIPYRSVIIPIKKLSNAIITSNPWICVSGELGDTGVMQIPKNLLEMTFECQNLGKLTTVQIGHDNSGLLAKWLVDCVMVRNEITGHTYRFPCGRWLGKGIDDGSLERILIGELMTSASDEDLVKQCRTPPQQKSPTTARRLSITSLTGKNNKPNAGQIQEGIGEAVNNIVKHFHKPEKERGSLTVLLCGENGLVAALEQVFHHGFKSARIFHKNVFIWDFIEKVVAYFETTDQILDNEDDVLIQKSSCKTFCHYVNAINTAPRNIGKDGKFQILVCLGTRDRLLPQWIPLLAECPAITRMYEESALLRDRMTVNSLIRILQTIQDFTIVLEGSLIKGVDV
UniProt O75140: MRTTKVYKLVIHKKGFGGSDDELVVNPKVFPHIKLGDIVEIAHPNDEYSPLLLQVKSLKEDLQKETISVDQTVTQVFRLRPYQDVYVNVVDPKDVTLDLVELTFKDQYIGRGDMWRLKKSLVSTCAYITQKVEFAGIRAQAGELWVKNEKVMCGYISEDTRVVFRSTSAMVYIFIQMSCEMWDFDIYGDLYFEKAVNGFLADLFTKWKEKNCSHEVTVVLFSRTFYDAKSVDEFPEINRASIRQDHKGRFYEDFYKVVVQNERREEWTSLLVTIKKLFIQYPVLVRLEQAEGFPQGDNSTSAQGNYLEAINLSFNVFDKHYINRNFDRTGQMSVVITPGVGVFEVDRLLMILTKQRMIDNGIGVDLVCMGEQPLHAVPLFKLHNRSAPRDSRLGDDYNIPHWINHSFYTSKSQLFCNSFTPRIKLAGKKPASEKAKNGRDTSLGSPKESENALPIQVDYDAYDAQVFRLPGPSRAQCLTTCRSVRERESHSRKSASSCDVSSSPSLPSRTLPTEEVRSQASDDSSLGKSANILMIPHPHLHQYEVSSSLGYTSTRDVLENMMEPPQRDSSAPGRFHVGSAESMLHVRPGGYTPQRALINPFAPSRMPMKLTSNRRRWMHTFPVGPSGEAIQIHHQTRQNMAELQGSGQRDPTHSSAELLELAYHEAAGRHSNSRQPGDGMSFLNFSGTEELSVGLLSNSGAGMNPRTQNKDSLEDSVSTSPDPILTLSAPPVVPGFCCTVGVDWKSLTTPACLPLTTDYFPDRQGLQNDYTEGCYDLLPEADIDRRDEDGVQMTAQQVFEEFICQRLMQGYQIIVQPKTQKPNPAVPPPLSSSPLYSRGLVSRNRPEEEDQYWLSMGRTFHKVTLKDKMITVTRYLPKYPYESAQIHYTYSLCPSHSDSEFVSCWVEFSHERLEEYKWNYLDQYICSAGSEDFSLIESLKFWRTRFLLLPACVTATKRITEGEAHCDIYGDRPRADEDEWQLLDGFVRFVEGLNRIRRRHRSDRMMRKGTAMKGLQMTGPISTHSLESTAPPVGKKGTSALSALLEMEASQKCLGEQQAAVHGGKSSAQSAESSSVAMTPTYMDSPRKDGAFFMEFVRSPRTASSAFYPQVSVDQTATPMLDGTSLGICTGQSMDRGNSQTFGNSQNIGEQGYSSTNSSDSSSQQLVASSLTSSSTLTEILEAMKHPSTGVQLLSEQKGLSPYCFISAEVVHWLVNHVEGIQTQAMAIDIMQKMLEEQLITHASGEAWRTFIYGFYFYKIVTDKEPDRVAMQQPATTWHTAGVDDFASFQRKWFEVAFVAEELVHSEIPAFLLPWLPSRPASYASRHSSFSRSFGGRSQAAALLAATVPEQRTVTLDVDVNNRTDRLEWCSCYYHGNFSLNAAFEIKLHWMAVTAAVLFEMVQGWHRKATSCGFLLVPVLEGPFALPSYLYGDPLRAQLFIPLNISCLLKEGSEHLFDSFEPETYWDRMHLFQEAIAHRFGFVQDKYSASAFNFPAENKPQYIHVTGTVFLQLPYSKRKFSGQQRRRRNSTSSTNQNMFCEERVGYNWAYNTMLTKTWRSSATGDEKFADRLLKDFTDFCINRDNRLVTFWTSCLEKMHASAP
UniProt Q9UJU6: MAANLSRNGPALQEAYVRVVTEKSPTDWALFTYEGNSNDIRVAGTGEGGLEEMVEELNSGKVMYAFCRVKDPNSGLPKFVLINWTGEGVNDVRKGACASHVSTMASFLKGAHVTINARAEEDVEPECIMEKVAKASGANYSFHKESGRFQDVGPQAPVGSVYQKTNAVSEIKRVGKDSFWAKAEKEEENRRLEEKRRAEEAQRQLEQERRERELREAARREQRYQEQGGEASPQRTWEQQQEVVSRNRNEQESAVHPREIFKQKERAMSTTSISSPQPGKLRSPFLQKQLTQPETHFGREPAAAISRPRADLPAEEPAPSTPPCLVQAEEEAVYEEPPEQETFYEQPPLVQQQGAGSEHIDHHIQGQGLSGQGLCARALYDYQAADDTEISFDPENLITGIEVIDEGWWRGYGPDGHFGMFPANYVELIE

[2] = compound: CN1CCc2c(c3ccccc3n2Cc2ccc(C(=O)NO)cc2)C1 [Tubastatin A]
In short: as §1

[3] = compound: CNC(=O)C1=CC=CC=C1NC2=NC(=NC=C2Cl)NC3=C(C=C(C=C3)N4CCOCC4)OC
In short: as §1

[4] = compound: CNc1nc(-c2ccc3c(N)n[nH]c3c2)cc(N2C[C@@H](C(=O)NC3CCCCC3)CC[C@H]2C)n1
In short: as §1

[5] = compound: COc1cc(Nc2ncc3c(n2)-c2ccc(Cl)cc2C(c2c(F)cccc2OC)=NC3)ccc1C(=O)O [alisertib]
In short: as §1

[6] = compound: COc1cc2ncnc(Nc3ccc(F)c(Cl)c3)c2cc1OCCCN1CCOCC1 [gefitinib]
In short: as §1

[7] = compound: C[C@@H](Oc1cc(-c2cnn(C3CCNCC3)c2)cnc1N)c1c(Cl)ccc(F)c1Cl [crizotinib]
In short: as §1

[8] = compound: C[C@H](C1=CC=C(C=C1)C(=O)NC2=C3C=CNC3=NC=C2)N
In short: as §1

[9] = compound: C[C@H](Nc1ncnc2nc[nH]c12)c1cc2cccc(Cl)c2c(=O)n1-c1ccccc1 [duvelisib]
In short: as §1

[10] = compound: Cc1cc(Nc2cc(CN3CCOCC3)c3nc(C)c(Cc4ccc(Cl)cc4F)n3n2)n[nH]1 [gandotinib]
In short: as §1

[11] = compound: Cc1ccc(-n2nc(C(C)(C)C)cc2NC(=O)Nc2ccc(OCCN3CCOCC3)c3ccccc23)cc1 [doramapimod]
In short: as §1

[12] = compound: Cc1cccc(CC(=O)N2CCc3c2ccc(-c2cn(C)c4ncnc(N)c24)c3F)n1
In short: as §1

[13] = compound: CNC(=O)c1ccc(Nc2ncc(C(F)(F)F)c(NCc3nccnc3N(C)S(C)(=O)=O)n2)cc1 [defactinib]
In short: as §1

[14] = compound: COC(=O)N[C@@H](C)CNc1nccc(-c2cn(C(C)C)nc2-c2cc(Cl)cc(NS(C)(=O)=O)c2F)n1 [encorafenib]
In short: as §1

[15] = compound: COC(=O)[C@H](CCSC)NC(=O)C1=C(C=C(C=C1)NC[C@H](CS)N)C2=CC=CC=C2
In short: as §1

[16] = compound: COc1cc2nc(-c3cc(F)ccc3O)nc(N[C@@H]3CNC[C@H]3C(C)(C)O)c2cc1OC
In short: as §1

[17] = compound: CS(=O)(=O)CCNCc1ccc(-c2ccc3ncnc(Nc4ccc(OCc5cccc(F)c5)c(Cl)c4)c3c2)o1 [lapatinib]
In short: as §1

[18] = compound: CS(=O)(=O)N1CCN(Cc2cc3nc(-c4cccc5[nH]ncc45)nc(N4CCOCC4)c3s2)CC1 [pictilisib]
In short: as §1

[19] = compound: Cc1cc(Nc2cc(N3CCN(C)CC3)nc(Sc3ccc(NC(=O)C4CC4)cc3)n2)n[nH]1 [tozasertib]
In short: as §1

[20] = compound: Cc1ccc(NC(=O)c2ccc(CN3CC[C@H](N(C)C)C3)c(C(F)(F)F)c2)cc1Nc1nccc(-c2cncnc2)n1 [bafetinib]
In short: as §1

Measured: log2 fold change

CYREN isoform 4 (UniProt Q9BWK5)
inactive: [1] 0.046 | [2] 0.099 | [3] 0.161 | [4] 0.103 | [5] -0.127 | [6] -0.063 | [7] -0.088 | [8] 0 | [9] -0.037 | [10] -0.059 | [11] 0.065 | [12] 0.034

DDOST (UniProt P39656)
inactive: [1] -0.048 | [2] 0.032 | [3] -0.031 | [13] -0.027 | [4] 0.016 | [14] -0.01 | [15] -0.02 | [5] 0.01 | [16] -0.034 | [6] 0.04 | [17] -0.014 | [18] 0.017 | [7] -0.021 | [8] -0.103 | [9] -0.004 | [10] 0.061 | [19] 0.003 | [11] 0.002 | [20] -0.041 | [12] 0.08

DENND5B isoform 2 (UniProt Q6ZUT9)
inactive: [1] -0.048 | [2] 0.136 | [3] -0.036 | [4] 0.083 | [5] 0.051 | [6] 0.202 | [18] 0.091 | [8] -0.348 | [9] 0.079 | [10] 0.228 | [20] -0.384 | [12] 0.465

DEPDC5 (UniProt O75140)
inactive: [1] 0.038 | [3] -0.083 | [13] 0.038 | [5] -0.165 | [6] 0.052 | [18] 0.014 | [8] -0.01 | [10] -0.032 | [20] -0.042 | [12] -0.01

DBNL (UniProt Q9UJU6)
inactive: [1] -0.028 | [3] -0.197 | [4] 0.13 | [5] 0.018 | [16] -0.012 | [6] -0.036 | [17] -0.03 | [18] -0.049 | [8] -0.114 | [9] -0.363 | [10] -0.053 | [20] -0.182 | [12] 0.066

Reference: the supplement of paper PMC10849652
